# According to PubChem BioAssay AID540256 (National Center for Advancing Translational Sciences (NCATS), 2011):
# Screen size: about 300,000 compounds; about 3,700 (1.2%) were called active. This list was built around the results that the source calls inconclusive (neither active nor inactive); the mix of calls is not that of the screen. The call rests on the fitted dose curve; tested in HEK293 cells. Potencies beside an inconclusive call are fits to weak or partial responses and may not hold up.
# Assay: qHTS for Inhibitors of binding or entry into cells for Lassa Virus; further: nearly all actives have a fitted effect of over 50% in size
# Conditions: Lassa virus pseudotype entry inhibition, cell reporter; series mostly up to 37.9 µM
# Potency means the concentration at half of the fitted maximal effect.
row,Compound,Potency
1,CCOC(=O)c1ccc2c(c1)C1C=CCC1C(C(=O)OCC)N2 (centres undefined),inactive
2,O=C(O)c1ccc(/C=C(\c2nc3ccccc3[nH]2)c2nc3ccccc3s2)cc1,inactive
3,Cc1cccc(N2CCN(Cc3cn(C)nc3-c3ccccc3F)CC2)n1,"inconclusive: 3.55 µM [inhibitor, single point]"
4,Cc1ccc(OCC(=O)Nc2nnc(SCc3cc(=O)c4ccccc4[nH]3)s2)cc1C,inactive
5,O=C(Cn1cnc2ccccc2c1=O)NNC(=O)c1ccccc1F,inactive
6,O=C(NCCCN1CCOCC1)c1ccc(Sc2cccc(Cl)c2)c([N+](=O)[O-])c1,"inconclusive: 17.8 µM [inhibitor, single point]"
7,COc1ncnc2c1oc1nc(CC(C)C)c3c(c12)CCCC3,"inconclusive: 1.26 µM [inhibitor, partial curve, poor fit]"
8,O=C(CN1C(=O)NC2(CCCC2)C1=O)Nc1ccc(F)c(F)c1F,"inconclusive: 0.411 µM [inhibitor, full curve, poor fit]"
9,Cn1c(=O)c2c(-c3ccccc3)n(C3CCCCC3)cc2n(C)c1=O,"inconclusive: 23.1 µM [inhibitor, partial curve]"
10,COc1cc2c(cc1OC)C(COc1ccc3c(C)cc(=O)oc3c1)N(C(=O)c1cccc(OC)c1OC)CC2 (centres undefined),active: 2.82 µM
11,Cc1ccc(C(=O)N/N=C\c2ccc(-c3ccc(Cl)c(Cl)c3)o2)cn1,"inconclusive: 35.5 µM [inhibitor, single point]"
12,O=C(NCC1CCCO1)c1cc2ccccc2cc1O (centres undefined),"inconclusive: 0.891 µM [activator, full curve]"
13,O=C(CS(=O)(=O)Cc1ccccc1)Nc1ccc(Cl)cn1,inactive
14,O=C(Nc1ccc2oc(-c3ccccc3)nc2c1)c1ccc2ccccc2c1,inactive
15,CN(C)CCNc1ccc(-c2nn(C)c(=O)c3ccccc23)cc1[N+](=O)[O-],inactive
16,Cc1ccc(N(CC(=O)Nc2c(C)cccc2C)S(C)(=O)=O)cc1,"inconclusive: 3.16 µM [inhibitor, single point]"
17,Cc1ccc(C2(CCNCc3ccc(N(C)C)cc3)CCOC(C(C)C)C2)cc1 (centres undefined),"inconclusive: 10 µM [inhibitor, partial curve]"
18,COc1cc2ncnc(Nc3cccc(Cl)c3)c2cc1OC,"inconclusive: 2.31 µM [inhibitor, full curve]"
19,COc1ccccc1NC(=O)COC(=O)Cc1c[nH]c2ccccc12,active: 11.2 µM
20,CC(C(=O)NCC1CCCCC1)N1CCN(S(=O)(=O)c2cccs2)CC1 (centres undefined),"inconclusive: 22.4 µM [inhibitor, single point]"
21,C=CCn1cnc2c(oc3ccccc32)c1=O,"inconclusive: 35.5 µM [activator, single point]"
22,COCCNC(=S)NN(c1ccccc1)c1ccccc1,"inconclusive: 2.51 µM [inhibitor, single point]"
23,Cc1cccc(C)c1OCC(=O)Nc1cccc(-c2nnc(-c3ccccc3)o2)c1,"inconclusive: 35.5 µM [inhibitor, single point]"

# Given tab-delimited: 16 of the compounds above
row	Compound	Potency
3	Cc1cccc(N2CCN(Cc3cn(C)nc3-c3ccccc3F)CC2)n1	inconclusive: 3.55 µM [inhibitor, single point]
4	Cc1ccc(OCC(=O)Nc2nnc(SCc3cc(=O)c4ccccc4[nH]3)s2)cc1C	inactive
5	O=C(Cn1cnc2ccccc2c1=O)NNC(=O)c1ccccc1F	inactive
6	O=C(NCCCN1CCOCC1)c1ccc(Sc2cccc(Cl)c2)c([N+](=O)[O-])c1	inconclusive: 17.8 µM [inhibitor, single point]
8	O=C(CN1C(=O)NC2(CCCC2)C1=O)Nc1ccc(F)c(F)c1F	inconclusive: 0.411 µM [inhibitor, full curve, poor fit]
9	Cn1c(=O)c2c(-c3ccccc3)n(C3CCCCC3)cc2n(C)c1=O	inconclusive: 23.1 µM [inhibitor, partial curve]
10	COc1cc2c(cc1OC)C(COc1ccc3c(C)cc(=O)oc3c1)N(C(=O)c1cccc(OC)c1OC)CC2 (centres undefined)	active: 2.82 µM
11	Cc1ccc(C(=O)N/N=C\c2ccc(-c3ccc(Cl)c(Cl)c3)o2)cn1	inconclusive: 35.5 µM [inhibitor, single point]
12	O=C(NCC1CCCO1)c1cc2ccccc2cc1O (centres undefined)	inconclusive: 0.891 µM [activator, full curve]
13	O=C(CS(=O)(=O)Cc1ccccc1)Nc1ccc(Cl)cn1	inactive
14	O=C(Nc1ccc2oc(-c3ccccc3)nc2c1)c1ccc2ccccc2c1	inactive
15	CN(C)CCNc1ccc(-c2nn(C)c(=O)c3ccccc23)cc1[N+](=O)[O-]	inactive
16	Cc1ccc(N(CC(=O)Nc2c(C)cccc2C)S(C)(=O)=O)cc1	inconclusive: 3.16 µM [inhibitor, single point]
20	CC(C(=O)NCC1CCCCC1)N1CCN(S(=O)(=O)c2cccs2)CC1 (centres undefined)	inconclusive: 22.4 µM [inhibitor, single point]
22	COCCNC(=S)NN(c1ccccc1)c1ccccc1	inconclusive: 2.51 µM [inhibitor, single point]
23	Cc1cccc(C)c1OCC(=O)Nc1cccc(-c2nnc(-c3ccccc3)o2)c1	inconclusive: 35.5 µM [inhibitor, single point]

# (further entries)

row,Compound,Potency
1,O=c1[nH]c2ccccc2cc1CN(Cc1cccnc1)S(=O)(=O)c1ccc(Cl)cc1,"inconclusive: 3.16 µM [inhibitor, single point]"
2,O=C(NNC(=O)C1COc2ccccc2O1)c1ccccc1 (centres undefined),inactive
3,COc1ccc(-n2nc(C(=O)NCC(=O)N3CCC4(CC3)OCCO4)c3ccccc3c2=O)cc1OC,"inconclusive: 35.5 µM [inhibitor, single point]"
4,Cc1ccc(CCNC(=O)CCCn2c(=O)c3ccccc3n(CC(=O)Nc3cc(Cl)ccc3C)c2=O)cc1,inactive
5,Cc1ccccc1-c1nc2sc3c(c2c(=O)n1N)CCCC3,"inconclusive: 3.98 µM [activator, single point]"
6,Cc1ccc(CN2CCSc3ccc(C(=O)Nc4cc(C)cc(C)c4)cc32)cc1,"inconclusive: 6.31 µM [inhibitor, partial curve, poor fit]"
7,COc1ccc(NC(=S)NC2CC3CCC2C3)c(OC)c1 (centres undefined),"inconclusive: 35.5 µM [inhibitor, partial curve, poor fit]"
8,COc1ccc(C(=O)NCc2ccc3c(c2)OCO3)cc1,inactive
9,Cc1noc(C)c1CSc1nc2[nH]ncc2c(=O)n1-c1ccccc1,active: 3.98 µM
10,C/C(=N\NC(=O)c1ccccn1)c1ccc(Cl)cc1,"inconclusive: 7.08 µM [inhibitor, partial curve, poor fit]"
11,CN(C(=O)CSc1nnc(-c2ccc([N+](=O)[O-])cc2)o1)C1CCCCC1,inactive
12,Cc1ccc(N=Nc2ccc3ccccc3c2O)cc1,active: 4.47 µM
13,CCS(=O)(=O)CCSc1nc(C)cc(C)c1C#N,"inconclusive: 13 µM [activator, partial curve, poor fit]"
14,C#CCn1c(S(=O)(=O)Cc2ccc(C)cc2)nc(-c2ccccc2)c1-c1ccccc1,active: 3.26 µM
15,CN(C(=O)Nc1cccc([N+](=O)[O-])c1)c1ccccc1,inactive
16,Cc1ccc(N/C=C2\C(=O)N(c3ccc(F)cc3F)C(c3cccnc3)S2(=O)=O)cc1 (centres undefined),"inconclusive: 22.4 µM [inhibitor, partial curve, poor fit]"
17,Cc1csc(NC(=O)c2nn(C)c(C)c2[N+](=O)[O-])n1,inactive
18,Cc1ccc(Cl)cc1NC(=O)CCCn1c(=O)c2cccn2c2ccccc21,"inconclusive: 12.6 µM [inhibitor, partial curve, poor fit]"
19,Cc1ccc2c(n1)sc1c(=O)n(-c3cccc(C(F)(F)F)c3)nnc12,"inconclusive: 15.8 µM [inhibitor, single point]"
20,CCC(=O)NCCCCCCCCCNC(=O)CC,"inconclusive: 0.13 µM [inhibitor, full curve, poor fit]"
21,Cc1cc(C)cc(NC(=O)CSc2oc(-c3ccco3)nc2S(=O)(=O)c2ccccc2)c1,"inconclusive: 5.62 µM [inhibitor, single point]"
22,Cc1cccc(N2CCN(C(=O)c3ccc4c(c3)c(C)c(C)n4C)CC2)c1C,"inconclusive: 20 µM [activator, single point]"
23,CCOc1ccc(NC(=O)N2CCC(CN3CCCCCC3)CC2)cc1,inactive

row,Compound,Potency
1,CN(CC(=O)Nc1cccc2c1CCCC2)S(=O)(=O)c1ccccc1,"inconclusive: 1.46 µM [activator, partial curve, poor fit]"
2,C=CCNC(=S)Nc1cccc2[nH]ncc12,"inconclusive: 2.51 µM [inhibitor, partial curve, poor fit]"
3,CC(C)CN(C(=O)CN(C)C(=O)Cc1ccccc1Cl)c1c(N)n(CC(C)C)c(=O)[nH]c1=O,"inconclusive: 5.62 µM [activator, single point]"
4,Cc1ccc(Cl)cc1NC(=O)c1sc2nc(-c3ccccc3)cn2c1C,inactive
5,CN(C)c1ccc(/C=N\NC(=O)c2ccc(Cn3cc(Cl)cn3)cc2)cc1,"inconclusive: 3.98 µM [inhibitor, full curve]"
6,Cc1c(/C(O)=C2/C(=O)C(=O)N(CCN3CCOCC3)C2c2ccccn2)cnn1-c1ccccc1 (centres undefined),"inconclusive: 10 µM [inhibitor, partial curve]"
7,O=C(COC(=O)c1ccccc1SCC(=O)N1CCCC1)Nc1ccccc1,"inconclusive: 5.62 µM [activator, single point]"
8,Cc1ccc(NC(=S)N2CCOCC2)cc1,inactive
9,Cc1cc2c(=O)n(Cc3ccco3)c(SCC(=O)N3CCCc4ccccc43)nc2s1,"inconclusive: 23.1 µM [inhibitor, single point]"
10,Cc1ccc(C)c(CSC2=NC(C)(C)Nc3ccccc32)c1,"inconclusive: 35.5 µM [activator, single point]"
11,Cc1ccc(C(CC(=O)NCc2ccco2)c2ccccc2)c(O)c1 (centres undefined),inactive
12,CCN(C(=O)C(C)OC(=O)CCCNC(=O)c1ccc(Cl)cc1)c1ccccc1 (centres undefined),"inconclusive: 20 µM [inhibitor, partial curve, poor fit]"
13,COc1ccc(NC(=O)/C(=C\c2ccc3c(c2)OCO3)NC(C)=O)cc1,"inconclusive: 5.01 µM [activator, full curve]"
14,CCCCC1(CC(=O)OCC)C(=O)N(c2ccccc2)N(c2ccccc2)C1=O,"inconclusive: 18.4 µM [activator, partial curve, poor fit]"
15,Cc1ccc(NC(=O)c2cc(NC(=O)c3ccco3)ccc2N2CCCCC2)cc1,inactive
16,CC(C)CN(C(=O)c1ccc(=O)n(C)n1)c1nc2ccccc2s1,"inconclusive: 6.51 µM [activator, single point]"
17,COc1ccc(CN(C(=O)c2snc(C(N)=O)c2N)C(C(=O)NC2CCCC2)c2ccc(OC)cc2)cc1 (centres undefined),"inconclusive: 0.1 µM [inhibitor, full curve, poor fit]"
18,Cc1ccc(C(=O)Nc2ncc3c(Cl)cccc3n2)cc1,"inconclusive: 5.62 µM [inhibitor, partial curve, poor fit]"
19,CCCCN(C)S(=O)(=O)c1cc(Br)cc2c1N(C(=O)C1CC1)CC2,"inconclusive: 18.3 µM [inhibitor, single point]"
20,Cn1c(-c2ccc(Cl)cc2)cnc1NCc1cc2c(cc1[N+](=O)[O-])OCO2,"inconclusive: 15.8 µM [inhibitor, partial curve, poor fit]"
21,Clc1ccc(Nc2c(-c3cccs3)nc3ccc(Cl)cn23)cc1,inactive
22,Cc1ccc(OCCCCCCN2CCNCC2)c(Br)c1,"inconclusive: 35.5 µM [inhibitor, single point]"
23,CCCn1nnnc1NCc1cccc(Cl)c1,"inconclusive: 6.31 µM [inhibitor, single point]"
